According to patent US20120151612A1, “NON-SURGICAL APPROACH TO PREVENT AND CORRECT CRANIOFACIAL MALFORMATIONS DURING DEVELOPMENT” (UNIVERSITY OF SOUTHERN CALIFORNIA, priority 2010, published 2012):
These are yes or no findings as the source states them, for the method shown. Binding seen in cells or lysates may run through a third protein. Some results given as binding are weak or reduced against the parent protein; the word gives no strength.

Key:
[1] = target: T1, Tgf-βRIII (transforming growth factor, beta receptor III) (mouse) (UniProt O88393); assay: legend of FIG. 12e, a schematic summing up the co-IP and cross-linking of FIG. 12b, c
T1 sequence (looked up): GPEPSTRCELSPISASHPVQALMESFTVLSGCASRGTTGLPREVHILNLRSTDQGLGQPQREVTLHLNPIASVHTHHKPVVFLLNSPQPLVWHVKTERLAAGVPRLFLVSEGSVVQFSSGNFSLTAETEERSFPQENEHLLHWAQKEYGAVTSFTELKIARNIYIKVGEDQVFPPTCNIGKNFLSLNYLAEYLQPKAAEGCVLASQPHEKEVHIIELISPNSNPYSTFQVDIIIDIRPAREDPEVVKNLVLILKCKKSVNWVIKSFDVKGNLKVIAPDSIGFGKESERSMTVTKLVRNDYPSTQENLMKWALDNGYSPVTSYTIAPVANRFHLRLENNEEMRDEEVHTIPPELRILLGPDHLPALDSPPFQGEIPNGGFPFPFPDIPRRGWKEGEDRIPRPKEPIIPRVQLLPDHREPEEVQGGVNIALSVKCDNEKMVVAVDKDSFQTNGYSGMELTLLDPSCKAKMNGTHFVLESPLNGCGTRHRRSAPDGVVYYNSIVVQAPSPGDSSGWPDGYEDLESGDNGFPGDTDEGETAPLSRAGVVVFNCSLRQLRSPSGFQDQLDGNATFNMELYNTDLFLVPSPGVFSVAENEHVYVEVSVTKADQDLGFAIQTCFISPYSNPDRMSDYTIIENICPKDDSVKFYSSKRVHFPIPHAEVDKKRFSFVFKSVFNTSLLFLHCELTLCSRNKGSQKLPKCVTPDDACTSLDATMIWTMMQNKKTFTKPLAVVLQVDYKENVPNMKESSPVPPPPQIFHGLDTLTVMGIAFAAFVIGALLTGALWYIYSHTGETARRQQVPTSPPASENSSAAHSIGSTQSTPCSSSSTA

[2] = target: T1, Tgf-βRIII (transforming growth factor, beta receptor III) (mouse); assay: legend of FIG. 24e, a schematic summing up the co-IP and cross-linking of FIG. 24b, c
[3] = target: T1, Tgf-βRIII (transforming growth factor, beta receptor III) (mouse); assay: conclusion from co-immunoprecipitation and cross-linking in MEPM cells; member of one complex
[4] = target: T1, Tgf-βRIII (transforming growth factor, beta receptor III) (mouse); assay: cross-linking and co-immunoprecipitation, MEPM cells and extracts (control vs Tgfbr2fl/fl;Wnt1-Cre)
[5] = target: T1, Tgf-βRIII (transforming growth factor, beta receptor III) (mouse); assay: conclusion from co-immunoprecipitation and cross-linking in MEPM cells (Example 3); member of one complex

Measured: binding

B1: Tgf-β2 (transforming growth factor, beta 2) (ligand, mouse, UniProt P27090 303-414, looked up)
chain: ALDAAYCFRNVQDNCCLRPLYIDFKRDLGWKWIHEPKGYNANFCAGACPYLWSSDTQHTKVLSLYNTINPEASASPCCVSQDLEPLTILYYIGNTPKIEQLSNMIVKSCKCS
binds: all assays above
